In patent publication US20250339466A1 (published 2025):
No constants are given. Whether binding was seen depends on the method and setting. Some results given as binding are weak or reduced against the parent protein; the word gives no strength.

Chains of the proteins cited; added tags and fusions are not shown. Lines headed by an entry give the natural chain unless they say otherwise; changes in a name come on top.
UniProt Q02223: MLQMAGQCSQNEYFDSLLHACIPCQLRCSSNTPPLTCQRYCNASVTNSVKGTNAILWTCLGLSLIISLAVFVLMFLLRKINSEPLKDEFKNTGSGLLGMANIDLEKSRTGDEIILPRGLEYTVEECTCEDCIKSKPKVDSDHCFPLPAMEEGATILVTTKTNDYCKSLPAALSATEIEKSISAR

Biological target: human BCMA protein (Octet; construct not specified) (human) (UniProt Q02223)
Assay: Octet (BLI), human BCMA

| binding | Binder |
| --- | --- |
| binds | Ab 2 (lead anti-BCMA clone, Table 4; printed there as VH: SEQ ID NO: 26, VL: SEQ ID NO: 25) (antibody, V domains shown) VH: QITLRESGGDVVQPGRSLRLSCAASGFTFSSYAIHWVRQAPGKGLEWVAVTWHDGSNKYYAESVMGRFTISRDNSKNTLYLHMNSLRAEDTGVYYCARAKFGEPQYFQHWGQGTLVTVSS VL: DIVMTQSPSFLSASVGDRVTITCRASQGINNYLAWYQQKPGIAPKLLIYAASTLQSGVPSRFGGSGSGTEFTLTISSLQPEDFATYYCQQLKSYPFTFGPGTKVEIK |
| binds | Ab 3 (lead anti-BCMA clone, Table 4; printed there as VH: SEQ ID NO: 10, VL: SEQ ID NO: 27) (antibody, V domains shown) VH: EVQLVESGGDVVQPGRSLRLSCAASGFTFSSYAIHWVRQAPGKGLEWVAVTWHDGSNKYYAESVMGRFTISRDNSKNTLYLHMNSLRAEDTGVYYCARAKFGEPQYFQHWGQGTTVTVSS VL: DIVMTQSPSFLSASVGDRVTITCRASQGISSYLAWYQQKPGKAPKLLIYAASTLQSGVPSRFSGSGSGTEFTLTISSLQPEDFATYYCQQLNSYPFTFGPGTKVDIK |
